Reference: US11684763B2, “Multi-component bio-active drug delivery and controlled release to the skin by microneedle array devices” (University of Pittsburgh—Of the Commonwealth System of …, priority 2015, dated 2023)
Some of these results come from one statement about several compounds together. For at least one compound, name, drawing or mass did not settle the structure.

Assay: Dye release from MNAs inserted into 4% agar test-gels
Type: physicochemical
Details: dye alone in the CMC matrix of the needle tip
Excerpt: To illustrate the delivery of multiple drugs with distinct release kinetics, MNAs were fabricated to delivery two distinct cargos by distinct release kinetics. Specifically, MNAs were fabricated to release the marker Toluidine Blue in an initial burst, followed by a sustained release of the marker FD&C Red40. Dyes were directly loaded in the MNA scaffold matrix (in this case CMC) of the needle tips and in some cases a second dye, encapsulated in a sustained release polymer was layer directly below. MNAs were inserted into 4% agar test-gels and removed after 1 min.
Images of dye diffusion were collected at the indicated time points (FIG. 39A). […] Alternatively, MNAs were fabricated with toluidine blue tip-loaded and FD&C Red40 encapsulated in a sustained release polymer (FIG. 39C). MNAs were inserted into 4% agar test-gel and removed after 1 min. Images were collected at the indicated time-points. […] Upper panels depict images of microneedles from MNAs before application. The middle images are the imprints of the arrays 1 minute after application and MNA removal. Lower panels depicted the indicated representative magnified images at the indicated time points.

SMILES: Cc1cc2nc3ccc(N(C)C)cc3[s+]c2cc1N.[Cl-] [Toluidine Blue]
- time to begin of release: ≤ 1 min
- time to essentially complete diffusion: ≤ 2 h
